Here are results for one substance from paper PMC10517460.

Sequences of proteins named here, by UniProt entry; tags and fusion partners are left off. Residues count along the entry.
UniProt O88572, residues 20-1613: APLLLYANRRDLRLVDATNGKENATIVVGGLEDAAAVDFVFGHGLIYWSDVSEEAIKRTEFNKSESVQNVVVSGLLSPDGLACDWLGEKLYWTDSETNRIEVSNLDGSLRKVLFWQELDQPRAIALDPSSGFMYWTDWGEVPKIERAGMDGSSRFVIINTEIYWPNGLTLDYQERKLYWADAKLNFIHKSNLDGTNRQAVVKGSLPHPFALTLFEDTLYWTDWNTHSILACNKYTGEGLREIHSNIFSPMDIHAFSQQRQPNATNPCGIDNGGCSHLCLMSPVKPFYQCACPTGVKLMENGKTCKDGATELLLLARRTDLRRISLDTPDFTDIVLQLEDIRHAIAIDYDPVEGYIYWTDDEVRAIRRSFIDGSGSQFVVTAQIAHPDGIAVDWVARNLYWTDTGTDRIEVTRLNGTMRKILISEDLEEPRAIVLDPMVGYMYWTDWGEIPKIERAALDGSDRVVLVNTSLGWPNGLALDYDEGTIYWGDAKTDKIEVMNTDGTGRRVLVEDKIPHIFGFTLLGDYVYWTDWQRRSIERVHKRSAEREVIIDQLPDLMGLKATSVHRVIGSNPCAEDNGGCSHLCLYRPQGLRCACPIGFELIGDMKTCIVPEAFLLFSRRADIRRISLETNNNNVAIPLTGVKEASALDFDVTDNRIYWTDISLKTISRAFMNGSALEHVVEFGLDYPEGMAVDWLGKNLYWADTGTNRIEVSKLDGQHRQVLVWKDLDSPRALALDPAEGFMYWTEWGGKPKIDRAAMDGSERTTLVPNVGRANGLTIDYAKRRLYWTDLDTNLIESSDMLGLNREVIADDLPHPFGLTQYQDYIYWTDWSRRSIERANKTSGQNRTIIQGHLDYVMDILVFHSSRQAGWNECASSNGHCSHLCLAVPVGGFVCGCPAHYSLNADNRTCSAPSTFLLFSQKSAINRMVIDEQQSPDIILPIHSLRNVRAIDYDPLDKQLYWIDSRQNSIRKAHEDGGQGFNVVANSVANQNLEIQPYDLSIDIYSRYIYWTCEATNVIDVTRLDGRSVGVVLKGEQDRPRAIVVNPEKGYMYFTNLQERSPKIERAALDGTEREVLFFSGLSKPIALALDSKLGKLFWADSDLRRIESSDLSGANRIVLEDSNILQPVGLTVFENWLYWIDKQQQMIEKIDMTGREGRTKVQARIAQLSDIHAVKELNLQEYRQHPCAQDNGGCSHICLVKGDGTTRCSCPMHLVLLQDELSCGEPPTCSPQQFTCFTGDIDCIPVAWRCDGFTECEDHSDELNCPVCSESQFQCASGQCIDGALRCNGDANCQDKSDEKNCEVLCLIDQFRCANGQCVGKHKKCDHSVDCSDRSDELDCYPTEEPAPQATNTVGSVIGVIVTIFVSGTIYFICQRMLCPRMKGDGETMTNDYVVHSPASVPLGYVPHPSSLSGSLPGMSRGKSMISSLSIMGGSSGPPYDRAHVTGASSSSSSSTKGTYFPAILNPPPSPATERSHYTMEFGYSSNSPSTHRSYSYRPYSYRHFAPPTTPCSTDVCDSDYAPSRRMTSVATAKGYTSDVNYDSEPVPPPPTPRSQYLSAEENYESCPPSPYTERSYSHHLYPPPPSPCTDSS
UniProt Q922U2: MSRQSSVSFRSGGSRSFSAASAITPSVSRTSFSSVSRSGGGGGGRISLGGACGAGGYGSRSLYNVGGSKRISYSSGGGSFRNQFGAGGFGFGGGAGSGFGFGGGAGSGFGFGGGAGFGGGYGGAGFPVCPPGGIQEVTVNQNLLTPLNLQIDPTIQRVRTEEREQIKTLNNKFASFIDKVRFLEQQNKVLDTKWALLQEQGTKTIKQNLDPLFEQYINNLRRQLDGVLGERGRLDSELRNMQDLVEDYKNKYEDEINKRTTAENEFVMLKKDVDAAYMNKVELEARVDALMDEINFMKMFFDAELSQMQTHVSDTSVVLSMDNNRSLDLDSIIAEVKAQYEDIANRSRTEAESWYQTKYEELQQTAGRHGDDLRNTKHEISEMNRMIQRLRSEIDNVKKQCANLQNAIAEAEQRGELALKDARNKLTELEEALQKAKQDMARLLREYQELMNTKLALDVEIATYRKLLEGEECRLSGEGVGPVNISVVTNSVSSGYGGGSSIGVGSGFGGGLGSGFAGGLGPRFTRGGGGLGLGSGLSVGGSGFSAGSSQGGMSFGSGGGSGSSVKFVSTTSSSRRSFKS

These are yes or no findings as the source states them, for the method shown. In cells and extracts the contact can be indirect. Some entries that bind do so weakly or less than the wild type.

This test concerns the target LDL receptor-related protein 6 (mouse (endogenous in purified AEC2s)) (UniProt O88572). As to the kind of experiment: FRET or BRET; acceptor photobleaching FRET by confocal microscopy (Leica … 5, LAS X FRET AB module) in purified AEC2s treated with CTGF (10 ng/mL); donor Krt5, acceptor LRP6. (Bioluminescence resonance energy transfer reports proximity on the nanometre scale.)

With Keratin 5 (from UniProt Q922U2 1-580), the binding entry is listed as “binds”.
